# Measured values reported in the supplement of paper PMC6411743.
# The chains behind the UniProt entries cited, without tags or fusion partners. Where a name states a change or a piece, a line headed by the entry shows the natural chain unless it says otherwise.
# UniProt P11274: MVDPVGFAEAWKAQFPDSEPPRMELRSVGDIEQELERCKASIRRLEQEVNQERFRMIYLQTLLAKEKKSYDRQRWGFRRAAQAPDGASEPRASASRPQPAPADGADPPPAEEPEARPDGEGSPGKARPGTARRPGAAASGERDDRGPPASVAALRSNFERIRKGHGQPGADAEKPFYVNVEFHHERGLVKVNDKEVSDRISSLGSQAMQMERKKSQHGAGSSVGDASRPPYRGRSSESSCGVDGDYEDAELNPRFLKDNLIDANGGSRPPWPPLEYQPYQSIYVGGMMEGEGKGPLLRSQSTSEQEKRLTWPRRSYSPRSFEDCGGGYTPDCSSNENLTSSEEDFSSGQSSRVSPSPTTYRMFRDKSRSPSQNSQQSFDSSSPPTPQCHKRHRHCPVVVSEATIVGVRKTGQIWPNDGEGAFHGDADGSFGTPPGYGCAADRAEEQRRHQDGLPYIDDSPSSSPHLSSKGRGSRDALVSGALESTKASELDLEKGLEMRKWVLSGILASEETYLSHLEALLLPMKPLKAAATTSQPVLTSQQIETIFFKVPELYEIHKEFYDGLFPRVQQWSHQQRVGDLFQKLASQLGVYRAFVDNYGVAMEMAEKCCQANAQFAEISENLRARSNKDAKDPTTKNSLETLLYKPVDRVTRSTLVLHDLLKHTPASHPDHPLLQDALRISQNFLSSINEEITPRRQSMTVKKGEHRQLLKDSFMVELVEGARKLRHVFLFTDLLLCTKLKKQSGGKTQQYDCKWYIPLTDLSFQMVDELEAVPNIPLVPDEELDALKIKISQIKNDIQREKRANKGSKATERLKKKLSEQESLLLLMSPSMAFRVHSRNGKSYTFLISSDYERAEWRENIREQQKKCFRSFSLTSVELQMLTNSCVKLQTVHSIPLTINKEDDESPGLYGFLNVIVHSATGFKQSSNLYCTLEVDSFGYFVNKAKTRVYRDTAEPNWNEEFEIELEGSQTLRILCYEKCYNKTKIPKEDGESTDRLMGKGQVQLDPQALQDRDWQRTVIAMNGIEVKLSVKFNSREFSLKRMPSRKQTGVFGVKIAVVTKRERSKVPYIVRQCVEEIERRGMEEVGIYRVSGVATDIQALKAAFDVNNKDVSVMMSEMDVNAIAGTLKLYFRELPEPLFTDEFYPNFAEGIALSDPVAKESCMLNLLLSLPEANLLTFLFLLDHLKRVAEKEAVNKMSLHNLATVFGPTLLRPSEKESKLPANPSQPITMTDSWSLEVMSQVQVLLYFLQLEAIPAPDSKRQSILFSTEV
# UniProt Q96GQ7: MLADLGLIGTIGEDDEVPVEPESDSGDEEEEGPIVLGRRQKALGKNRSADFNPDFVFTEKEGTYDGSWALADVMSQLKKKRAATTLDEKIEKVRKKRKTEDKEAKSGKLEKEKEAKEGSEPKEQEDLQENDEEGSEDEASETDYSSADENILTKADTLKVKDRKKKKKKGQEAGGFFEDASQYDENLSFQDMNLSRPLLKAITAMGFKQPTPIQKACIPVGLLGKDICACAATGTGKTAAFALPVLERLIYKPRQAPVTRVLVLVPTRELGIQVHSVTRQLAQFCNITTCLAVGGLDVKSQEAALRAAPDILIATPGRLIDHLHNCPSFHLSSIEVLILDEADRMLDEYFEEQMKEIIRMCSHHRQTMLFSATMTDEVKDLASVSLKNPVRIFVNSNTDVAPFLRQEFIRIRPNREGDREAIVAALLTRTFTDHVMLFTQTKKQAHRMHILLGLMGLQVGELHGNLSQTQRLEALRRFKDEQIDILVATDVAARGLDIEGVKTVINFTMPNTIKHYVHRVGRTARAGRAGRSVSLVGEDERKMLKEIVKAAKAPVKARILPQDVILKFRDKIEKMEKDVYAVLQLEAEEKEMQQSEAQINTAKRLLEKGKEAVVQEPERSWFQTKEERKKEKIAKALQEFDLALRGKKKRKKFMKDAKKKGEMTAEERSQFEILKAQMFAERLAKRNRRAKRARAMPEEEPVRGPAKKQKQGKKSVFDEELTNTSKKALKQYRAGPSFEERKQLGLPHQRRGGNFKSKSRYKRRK
# UniProt Q7Z2W4: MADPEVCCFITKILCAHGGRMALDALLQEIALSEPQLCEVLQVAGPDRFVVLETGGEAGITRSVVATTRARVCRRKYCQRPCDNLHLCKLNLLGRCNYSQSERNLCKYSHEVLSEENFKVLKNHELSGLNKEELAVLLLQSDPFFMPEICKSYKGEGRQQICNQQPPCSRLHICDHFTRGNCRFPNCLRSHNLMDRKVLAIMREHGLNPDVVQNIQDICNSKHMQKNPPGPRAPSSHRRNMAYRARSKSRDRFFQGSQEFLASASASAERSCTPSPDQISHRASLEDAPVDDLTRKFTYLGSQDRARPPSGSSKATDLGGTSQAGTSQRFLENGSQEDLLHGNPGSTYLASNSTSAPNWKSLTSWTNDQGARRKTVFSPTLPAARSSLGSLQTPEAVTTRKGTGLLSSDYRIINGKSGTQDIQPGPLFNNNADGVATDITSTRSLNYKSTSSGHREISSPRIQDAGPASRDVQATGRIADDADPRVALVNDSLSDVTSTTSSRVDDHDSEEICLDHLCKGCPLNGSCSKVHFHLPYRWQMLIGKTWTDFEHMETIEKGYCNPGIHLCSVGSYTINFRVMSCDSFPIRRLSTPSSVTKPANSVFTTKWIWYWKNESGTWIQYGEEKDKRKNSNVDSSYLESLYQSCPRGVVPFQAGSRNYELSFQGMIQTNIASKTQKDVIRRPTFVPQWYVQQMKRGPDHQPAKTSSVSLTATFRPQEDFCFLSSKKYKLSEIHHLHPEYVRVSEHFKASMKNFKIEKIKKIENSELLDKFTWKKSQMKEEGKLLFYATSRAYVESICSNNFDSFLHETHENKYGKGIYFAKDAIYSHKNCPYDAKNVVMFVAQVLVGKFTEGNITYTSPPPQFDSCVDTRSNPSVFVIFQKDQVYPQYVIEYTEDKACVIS
# UniProt Q96GF1: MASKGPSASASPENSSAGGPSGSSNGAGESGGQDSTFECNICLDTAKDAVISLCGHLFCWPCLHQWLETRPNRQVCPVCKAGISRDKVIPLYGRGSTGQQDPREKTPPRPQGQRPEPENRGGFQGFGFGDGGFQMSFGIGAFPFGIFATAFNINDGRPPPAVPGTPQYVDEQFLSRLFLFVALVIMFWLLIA
# UniProt O15213: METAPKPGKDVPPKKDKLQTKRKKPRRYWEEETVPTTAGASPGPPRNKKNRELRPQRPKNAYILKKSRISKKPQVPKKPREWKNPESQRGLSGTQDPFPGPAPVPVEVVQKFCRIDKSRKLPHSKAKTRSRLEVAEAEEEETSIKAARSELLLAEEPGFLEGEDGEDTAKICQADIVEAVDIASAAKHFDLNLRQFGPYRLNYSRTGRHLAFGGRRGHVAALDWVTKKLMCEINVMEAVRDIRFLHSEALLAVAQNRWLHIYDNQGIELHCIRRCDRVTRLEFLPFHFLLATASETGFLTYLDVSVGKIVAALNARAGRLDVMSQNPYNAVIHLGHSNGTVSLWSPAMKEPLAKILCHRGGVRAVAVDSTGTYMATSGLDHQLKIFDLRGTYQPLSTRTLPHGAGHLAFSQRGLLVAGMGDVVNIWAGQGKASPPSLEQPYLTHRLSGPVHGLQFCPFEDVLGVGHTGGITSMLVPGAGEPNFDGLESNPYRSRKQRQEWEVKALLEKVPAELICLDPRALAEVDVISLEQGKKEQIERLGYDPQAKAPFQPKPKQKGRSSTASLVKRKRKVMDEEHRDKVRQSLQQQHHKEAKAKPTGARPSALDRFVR
# UniProt P84101: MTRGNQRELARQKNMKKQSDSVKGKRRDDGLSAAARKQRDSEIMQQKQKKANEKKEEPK
# UniProt Q9P289: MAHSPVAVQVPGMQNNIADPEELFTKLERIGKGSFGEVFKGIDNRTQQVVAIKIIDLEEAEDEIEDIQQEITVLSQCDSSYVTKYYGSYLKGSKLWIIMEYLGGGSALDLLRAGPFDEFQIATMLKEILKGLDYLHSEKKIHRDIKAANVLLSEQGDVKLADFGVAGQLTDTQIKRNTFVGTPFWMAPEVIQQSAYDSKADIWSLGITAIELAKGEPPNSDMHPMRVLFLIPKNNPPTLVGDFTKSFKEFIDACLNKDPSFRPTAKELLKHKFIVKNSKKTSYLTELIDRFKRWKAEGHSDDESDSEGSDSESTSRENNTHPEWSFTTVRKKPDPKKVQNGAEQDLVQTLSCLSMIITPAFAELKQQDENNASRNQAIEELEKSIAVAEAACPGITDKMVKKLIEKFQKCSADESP
# UniProt P61086: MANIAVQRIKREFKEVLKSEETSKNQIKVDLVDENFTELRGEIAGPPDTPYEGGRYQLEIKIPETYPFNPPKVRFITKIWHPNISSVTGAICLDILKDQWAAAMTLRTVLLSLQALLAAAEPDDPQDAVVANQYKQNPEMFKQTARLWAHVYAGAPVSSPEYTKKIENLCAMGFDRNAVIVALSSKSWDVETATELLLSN
# UniProt Q8NBW4: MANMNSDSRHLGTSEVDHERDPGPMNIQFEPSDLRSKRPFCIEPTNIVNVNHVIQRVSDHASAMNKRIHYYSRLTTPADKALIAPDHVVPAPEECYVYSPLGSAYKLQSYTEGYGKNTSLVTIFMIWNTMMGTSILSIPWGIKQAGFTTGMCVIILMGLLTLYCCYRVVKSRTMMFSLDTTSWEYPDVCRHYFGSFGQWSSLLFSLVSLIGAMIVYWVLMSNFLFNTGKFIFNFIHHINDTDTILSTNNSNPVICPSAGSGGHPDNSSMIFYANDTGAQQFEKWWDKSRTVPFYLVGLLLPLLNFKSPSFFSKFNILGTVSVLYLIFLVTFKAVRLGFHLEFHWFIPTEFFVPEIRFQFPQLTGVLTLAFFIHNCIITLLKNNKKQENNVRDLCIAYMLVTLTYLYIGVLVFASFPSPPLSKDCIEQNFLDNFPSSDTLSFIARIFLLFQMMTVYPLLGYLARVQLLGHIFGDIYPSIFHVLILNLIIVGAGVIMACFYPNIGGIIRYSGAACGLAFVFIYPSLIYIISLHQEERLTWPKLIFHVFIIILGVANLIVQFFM
# UniProt Q969S8: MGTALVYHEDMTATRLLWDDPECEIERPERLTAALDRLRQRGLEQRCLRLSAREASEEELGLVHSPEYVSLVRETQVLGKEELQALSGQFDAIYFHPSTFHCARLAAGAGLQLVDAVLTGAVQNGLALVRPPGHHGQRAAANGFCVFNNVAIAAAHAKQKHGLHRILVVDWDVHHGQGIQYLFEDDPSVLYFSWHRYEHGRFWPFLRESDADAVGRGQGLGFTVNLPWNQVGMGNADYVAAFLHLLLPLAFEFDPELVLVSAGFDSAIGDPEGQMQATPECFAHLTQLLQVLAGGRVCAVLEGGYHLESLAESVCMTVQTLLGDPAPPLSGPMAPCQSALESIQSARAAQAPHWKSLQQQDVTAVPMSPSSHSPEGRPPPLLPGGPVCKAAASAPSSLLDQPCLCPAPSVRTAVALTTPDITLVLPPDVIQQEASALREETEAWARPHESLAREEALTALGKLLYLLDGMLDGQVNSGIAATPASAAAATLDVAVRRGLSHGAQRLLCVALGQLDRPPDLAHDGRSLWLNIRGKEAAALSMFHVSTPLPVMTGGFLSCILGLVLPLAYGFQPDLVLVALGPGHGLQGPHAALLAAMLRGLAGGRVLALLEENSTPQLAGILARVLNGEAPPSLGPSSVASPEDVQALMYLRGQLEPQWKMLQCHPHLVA
# UniProt O75817: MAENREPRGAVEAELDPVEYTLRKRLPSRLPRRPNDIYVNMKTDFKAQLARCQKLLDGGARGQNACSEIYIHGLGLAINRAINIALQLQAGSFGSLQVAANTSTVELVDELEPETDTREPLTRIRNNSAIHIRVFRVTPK
# UniProt B7ZVY7, whole entry, looked up: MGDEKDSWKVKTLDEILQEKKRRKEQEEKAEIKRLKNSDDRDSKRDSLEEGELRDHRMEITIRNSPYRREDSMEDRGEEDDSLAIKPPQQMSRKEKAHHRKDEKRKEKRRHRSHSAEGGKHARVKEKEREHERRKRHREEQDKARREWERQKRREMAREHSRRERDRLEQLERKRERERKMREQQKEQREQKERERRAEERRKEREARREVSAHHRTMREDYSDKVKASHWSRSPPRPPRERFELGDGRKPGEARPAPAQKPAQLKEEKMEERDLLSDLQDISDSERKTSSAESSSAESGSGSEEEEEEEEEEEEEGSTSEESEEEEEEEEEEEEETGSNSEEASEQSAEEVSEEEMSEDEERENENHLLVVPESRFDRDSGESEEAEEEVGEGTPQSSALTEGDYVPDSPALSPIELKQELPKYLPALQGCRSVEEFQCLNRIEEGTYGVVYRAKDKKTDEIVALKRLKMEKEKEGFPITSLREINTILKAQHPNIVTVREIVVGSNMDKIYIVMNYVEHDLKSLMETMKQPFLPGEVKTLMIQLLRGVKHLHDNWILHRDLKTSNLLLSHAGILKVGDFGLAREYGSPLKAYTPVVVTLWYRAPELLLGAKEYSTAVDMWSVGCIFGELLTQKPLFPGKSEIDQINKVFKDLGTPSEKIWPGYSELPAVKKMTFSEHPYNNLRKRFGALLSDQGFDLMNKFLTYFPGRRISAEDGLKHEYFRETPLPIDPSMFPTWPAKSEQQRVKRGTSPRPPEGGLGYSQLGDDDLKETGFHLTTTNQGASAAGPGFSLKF
# ± gives the standard deviation of the averaged measurements. The list shows a part of the results, in another mix than the full data. Small differences around the control level are noise.
# Compound: Nc1ncnc2c1ncn2[C@@H]1O[C@H](COP(=O)(O)OP(=O)(O)OP(=O)(O)O)[C@@H](O)[C@H]1O [adenosine triphosphate]
# Test: NP40-soluble protein abundance relative to vehicle (solubility fold change) (ratio); higher = more soluble protein in presence of ATP
# In short: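 In three independent experiments, Jurkat crude lysate made by Dounce homogenisation was treated for 10 min at room temperature and then 3 min at 37 °C with eight concentrations ranging from 0.1 to 10 mM. It was then solubilised with 0.8% NP40 plus benzonase for 60 min at 4 °C and ultracentrifuged. The supernatant was TMT-labelled for LC-MS/MS, and each value is the fold change against the detergent-processed vehicle for the same replicate, using vsn-normalised intensities.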
Target,NP40-soluble protein abundance (concentration: 0.1mM),NP40-soluble protein abundance (concentration: 0.5mM)
A9UF01 and related entries (UniProt P11274),1.03 ± 0.045,0.999 ± 0.053
A0A0G2JLV7|A0A0G2JMI0|A0A0G2JNK8|A0A0G2JNU6|A0A0G2JP18|A0A0G2JQ50|A0A140T8W3|Q6GTX8 and related entries (UniProt Q6GTX8),0.971 ± 0.12,0.919 ± 0.1
B4E1Q4 and related entries (UniProt O14730),1.03 ± 0.09,0.979 ± 0.092
B7Z6D5 and related entries (UniProt Q96GQ7),1.03 ± 0.066,1.06 ± 0.015
A0A0U1RRB6|Q9Y2D4 and related entries (UniProt Q9Y2D4),1.01 ± 0.06,1.01 ± 0.069
C9J6P4 and related entries (UniProt Q7Z2W4),1.06 ± 0.029,1.16 ± 0.052
C9J9P8 and related entries (UniProt Q969M7),0.928 ± 0.079,0.925 ± 0.11
A0A0U1RRC9|P57075 and related entries (UniProt P57075),0.971 ± 0.046,0.933 ± 0.04
A8MVZ6 and related entries (UniProt Q96G01),1.01 ± 0.03,0.98 ± 0.06
UniProt A0MZ66,0.994 ± 0.019,1.03 ± 0.039
UNC119B (UniProt A6NIH7),1.06 ± 0.1,1.07 ± 0.093
C9IYN3 and related entries (UniProt Q8WVV9+D6W592+C9IYN3),1.04 ± 0.073,1.06 ± 0.07
A9X3U0 and related entries (UniProt Q96GF1),1.03 ± 0.16,0.93 ± 0.057
UniProt A3KN83 and related entries,0.974 ± 0.031,0.998 ± 0.043
A0A140T9L0|O15213 (UniProt O15213),1.12 ± 0.073,1.11 ± 0.16
A6NK28 and related entries (UniProt Q13163),0.991 ± 0.097,1.22 ± 0.28
B4DDF4 and related entries (UniProt Q99439),0.932 ± 0.025,0.961 ± 0.015
C9J5C3 and related entries (UniProt Q9BUL8),0.981 ± 0.02,0.976 ± 0.076
ZNF316 (UniProt A6NFI3),0.985 ± 0.066,0.97 ± 0.021
B8ZZY7 and related entries (UniProt P84101),0.969 ± 0.053,0.8799 ± 0.0045
B4E0Y9 and related entries (UniProt Q9P289),0.992 ± 0.029,0.995 ± 0.017
D6RF48 and related entries (UniProt Q9P2W9),0.978 ± 0.053,0.938 ± 0.065

Target,NP40-soluble protein abundance (concentration: 0.1mM),NP40-soluble protein abundance (concentration: 0.5mM)
B4E3Q4 and related entries (UniProt Q9NZK5),1.04 ± 0.024,0.994 ± 0.033
C4B7M2 and related entries (UniProt Q96JI7),0.944 ± 0.2,1.06 ± 0.11
A0A140T9D0|Q8NBI6 and related entries (UniProt Q8NBI6),0.919 ± 0.056,0.963 ± 0.033
B5MDU6 and related entries (UniProt Q9H6V9),1.02 ± 0.067,1.08 ± 0.1
D6RDM7 and related entries (UniProt P61086),0.966 ± 0.058,0.988 ± 0.042
D6RE79 and related entries (UniProt Q14728),1.09 ± 0.041,1.03 ± 0.027
A6NJD9 and related entries (UniProt Q16540),0.929 ± 0.17,0.933 ± 0.12
A4D1U4 and related entries (UniProt C9J7X6+A4D1U4),1.16 ± 0.068,1.09 ± 0.024
B7Z4W5 (UniProt Q16773),1.05 ± 0.17,1.01 ± 0.037
A0A0G2JJD3|O95870 (UniProt O95870),1.05 ± 0.061,1.02 ± 0.058
CCDC88B (UniProt A6NC98),0.992 ± 0.039,0.965 ± 0.085
D6R9Q7 and related entries (UniProt Q8NBW4),1 ± 0.036,0.942 ± 0.097
C9J7K9 and related entries (UniProt O15162),0.95 ± 0.11,0.919 ± 0.2
C9J8B8 and related entries (UniProt Q969S8),0.889 ± 0.059,0.919 ± 0.064
C9JEH3 and related entries (UniProt Q13685),1.01 ± 0.099,1.05 ± 0.12
B4DKD5 and related entries (UniProt Q7Z6M4),1.05 ± 0.056,0.936 ± 0.014
C9JYM0 and related entries (UniProt O75817),1.19 ± 0.23,1.01 ± 0.13
B7ZVY7 and related entries (UniProt P21127+B7ZVY7),0.985 ± 0.057,0.899 ± 0.075
A2IDC6 and related entries (UniProt Q13084),0.914 ± 0.15,0.927 ± 0.14
A2A2Q9 and related entries (UniProt Q9Y312),0.957 ± 0.058,0.961 ± 0.057
A3KFL2 and related entries (UniProt Q13868),1.07 ± 0.024,1.06 ± 0.034

# Reformatted as tab-separated lines: entries from further up.
Target	NP40-soluble protein abundance (concentration: 0.1mM)	NP40-soluble protein abundance (concentration: 0.5mM)
A2A2Q9 and related entries (UniProt Q9Y312)	0.957 ± 0.058	0.961 ± 0.057
A3KFL2 and related entries (UniProt Q13868)	1.07 ± 0.024	1.06 ± 0.034
